PubChem BioAssay AID504808 | Drosophila RNAi Screening Center, 2011
The screen tested about 21,000 reagents; below is an unselected part of those with a known target gene and a result. Of all reagents, 18 (0.084%) got an active call. 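Raw counts without plate normalisation, one of two replicates; the ratio scores behind the calls were not deposited.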 Names joined by + are all predicted targets of the reagent. Not given: the amount of reagent, the time to read-out.

Assay: 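Chromatin factors that keep E2F targets switched off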 (primary screen)
System: Drosophila S2 cells
Reagent: long dsRNA against Drosophila genes
Read-out: 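Firefly luciferase driven by E2F sites, normalised to Renilla luciferase on the same minimal promoter, measured by plate reader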
Scale: E2F firefly: higher = more E2F reporter activity; Renilla normaliser: higher = more normaliser reporter signal
Hit rule: 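Called active if the normalised E2F reporter went up by over 50%; the cutoff is arbitrary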

no.	gene	DRSC id	E2F firefly, rep 1	Renilla normaliser, rep 1	outcome
1	CG31638	DRSC02269	1.57e5	5523	inactive
2	CG31638	DRSC03259	1.56e5	4997	inactive
3	Ldsdh1	DRSC18219	90560	4828	inactive
4	CG3760	DRSC04415	53768	3097	inactive
5	NdufV3	DRSC19423	74412	4432	inactive
6	knk	DRSC15993	1.59e5	5963	inactive
7	gpp	DRSC12515	1.12e5	5701	inactive
8	gpp	DRSC12516	1.10e5	4828	inactive
9	CG13791 (retired record)	DRSC02295	1.47e5	4715	inactive
10	CG14628	DRSC18626	1.09e5	6291	inactive
11	CG7789	DRSC16312	1774	928	inactive
12	Fili	DRSC03907	1.09e5	3800	inactive
13	Fili	DRSC04132	1.01e5	4395	inactive
14	Fili	DRSC04445	1.02e5	4605	inactive
15	Desi	DRSC14909	1.57e5	7165	inactive
16	escl	DRSC02828	85868	3123	inactive
17	Sas10	DRSC18355	84695	5309	inactive
18	CG7290	DRSC10800	1.18e5	6652	inactive
19	Ufl1	DRSC12527	74018	3348	inactive
20	Pdh	DRSC11249	87262	4057	inactive
21	Dhod	DRSC16647	80477	4383	inactive
22	CG11961	DRSC06099	77714	3757	inactive
23	CG42365	DRSC04266	98476	4144	inactive
24	CG5762	DRSC15869	58121	3150	inactive
25	CG14491	DRSC06462	1.65e5	5194	inactive
26	CheB38a	DRSC03205	1.01e5	4077	inactive
27	CR15280	DRSC01953	1.07e5	4552	inactive
28	crb	DRSC16927	77475	4058	inactive
29	CG8360	DRSC03085	1.35e5	5285	inactive
30	Rh2	DRSC16821	1.46e5	8712	inactive
31	Grl65a	DRSC08837	1.36e5	5010	inactive
32	CG8858	DRSC07290	98779	4274	inactive
33	CG15403	DRSC00417	1.42e5	4497	inactive
34	SCCRO3	DRSC06359	95357	4265	inactive
35	bun	DRSC01253	1.22e5	5911	inactive
36	bun	DRSC01255	1.32e5	6170	inactive
37	bun	DRSC03500	52039	2997	inactive
38	Btnd	DRSC18316	1.04e5	5439	inactive
39	CG13836 (retired record)	DRSC14686	1.08e5	6335	inactive
40	Dys + snoRNA:Me18S-A1374	DRSC16232	1.18e5	7250	inactive
41	Cth	DRSC07422	68806	3431	inactive
42	Damm	DRSC07393	93662	4204	inactive
43	Art6	DRSC16583	1.10e5	6205	inactive
44	Rdh1	DRSC06812	3312	177	inactive
45	CG15650	DRSC04241	1.04e5	4215	inactive
46	CG14005	DRSC02337	99058	3979	inactive
47	PRL-1	DRSC03393	97581	4197	inactive
48	CG2004	DRSC18200	61353	4127	inactive
49	Cam	DRSC07353	1.02e5	4233	inactive
50	Cam	DRSC07354	1.16e5	4858	inactive
51	Npc1b	DRSC20488	1.31e5	7264	inactive
52	CG17648	DRSC00508	1.73e5	6297	inactive
53	l(2)27Cb (retired record)	DRSC02758	1.26e5	5613	inactive
54	CG30031 + deltaTry + gammaTry	DRSC07622	97730	4255	inactive
55	Mur29B	DRSC01018	1.35e5	6113	inactive
56	Mur29B	DRSC02376	1.41e5	5357	inactive
57	Zif	DRSC12514	75647	3394	inactive
